# Reference: PubChem BioAssay AID445 (National Center for Advancing Translational Sciences (NCATS), 2006)
# The other results are listed elsewhere or left out. The main result of the screen is listed elsewhere. These columns were measured beside it and carry no call. Most of these compounds were active or inconclusive in the main read-out, so they are no random draw. Potencies come from curve fits of mixed quality, noted in brackets.
# Assay: IkB Signaling
# Conditions: ABC-DLBCL IkBa-CBG/CBR dual luciferase ratio (green luciferase fused to IkBa over red control in OCI-Ly3 lymphoma cells), 4 h; measured here: control luc red channel unless noted
# Summary of the method: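 Luminescence ratio of IκBα-fused green versus native red beetle luciferase in OCI-Ly3 cells, 4 h post-doxycycline with compound; red signal alone, scaled from basal (0%) to zero light (-100%), flagged nonspecific or cytotoxic effects.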
row,SMILES,AC50
1,CCc1ccc(N2C(=O)CSC23C(=O)N(Cc2ccc(C)cc2)c2ccccc23)cc1 (stereo unspecified),"15.8 µM [falling, partial curve]"
2,COc1ccc(S(=O)(=O)c2c(C)c(NS(=O)(=O)c3ccccc3)cc(C)c2O)cc1,"12.6 µM [falling, partial curve]"
3,COc1ccc(Cn2cc(C(=O)c3ccc(C)cc3)c(=O)c3cc(OC)c(OC)cc32)cc1,"15.8 µM [falling, partial curve]"
4,CN(C)c1ccc(C(=C2C=CC(=[N+](C)C)C=C2)c2c(O)c(S(=O)(=O)O)cc3cc(S(=O)(=O)O)ccc23)cc1,"3.98 µM [falling, partial curve]"
5,COc1cc(C(c2c(C)[nH][nH]c2=O)c2c(C)[nH][nH]c2=O)ccc1OC(=O)c1cccc(C)c1,"31.6 µM [falling, single point]"
6,O=C(c1ccc2c(c1)CCCC2)N1CCN(c2nc3c(F)cccc3s2)CC1,"0.0631 µM [rising, full curve, poor fit]"
7,CCCCOc1ccc(CN2C(=O)C(=O)c3cc(Br)cc(C)c32)cc1OC,"5.01 µM [rising, partial curve]"
8,Cc1ccc(CN2CCc3nc(N4CCN(c5ccccc5F)CC4)ncc3C2)cc1C,"0.00501 µM [falling, full curve]"
9,OC(COc1c(F)cc(Br)cc1F)CN1CCN(c2ccc(F)cc2)CC1 (stereo unspecified),"15.8 µM [falling, partial curve]"
10,O=C(NCc1ccccc1Cl)C1CCCN(C(=O)c2cnn(-c3ccccc3)c2-n2cccc2)C1 (stereo unspecified),"15.8 µM [falling, single point]"
11,Cc1nc2c(C(=O)NCCc3ccc(Cl)cc3)c[nH]n2c(=O)c1Cc1ccc(Cl)cc1,"7.94 µM [falling, full curve]"
12,COc1ccccc1C(=O)Nc1c(C(=O)N(C)Cc2ccccc2)sc2nc(C)c(Cl)c(C)c12,"15.8 µM [falling, partial curve]"
13,Cc1cccc(-c2nc3c(c(SCc4ccccc4Cl)n2)Cc2c(CO)cnc(C)c2O3)c1,"39.8 µM [rising, partial curve, poor fit]"
14,CCc1ccc(S(=O)(=O)NCc2csc(-c3ccccc3)n2)s1,"25.1 µM [falling, partial curve]"
15,CCCc1cc(=O)n2c(nc3ccccc32)[nH]1,"10 µM [falling, partial curve]"
16,CNC(=O)CN1C(=O)c2cccnc2Sc2ccccc21,"3.16 µM [falling, single point]"
17,COc1ccc(-c2nc3cc(C)ccn3c2NC(=O)c2ccc(C)c(C)c2)cc1,"20 µM [falling, partial curve, poor fit]"
18,COc1ccc(-n2c(=O)c3c4c(sc3n(Cc3ccccc3Cl)c2=O)CCC4)c(OC)c1,"5.01 µM [falling, single point]"
19,Cc1cccc(OCC(=O)Nc2ccccc2OCc2cc(=O)n3ccccc3n2)c1,"3.16 µM [falling, partial curve]"
20,CC1CCN(S(=O)(=O)c2cc(C(=O)NCc3ccccc3)n(C)c2)CC1,"20 µM [falling, partial curve]"
21,COc1cc2ncc3c(-c4ccccc4)nn(CC(=O)NC4CCCCC4)c3c2cc1OC,"0.0794 µM [falling, full curve]"

row,SMILES,AC50
1,c1cc(-c2noc(CC3CCCCC3)n2)ccn1,"2.51 µM [rising, full curve, poor fit]"
2,CN(C(=O)c1ccc2c(c1)N(Cc1ccc(F)cc1)C(=O)c1ccccc1S2(=O)=O)C1CCCCC1,"15.8 µM [falling, partial curve]"
3,CCOCCCn1c(=N)c(C(=O)NC(C)c2ccccc2)cc2c(=O)n3cccc(C)c3nc21 (stereo unspecified),"0.0126 µM [falling, full curve, poor fit]"
4,Fc1cccc(-c2nnn3c2nc(NCc2ccc4c(c2)OCO4)c2ccccc23)c1,"0.501 µM [falling, full curve]"
5,COC(=O)c1ccc(-c2nc(-c3ccc(OC)c(OC)c3)no2)cc1,"5.01 µM [falling, partial curve]"
6,O=C(c1ccc2c(c1)N(Cc1ccc(Cl)cc1)C(=O)c1ccccc1S2(=O)=O)N1CCN(Cc2ccccc2)CC1,"12.6 µM [falling, partial curve]"
7,Cc1cc(C)cc(NC(=O)CCc2c(C)nc3c(c2C)c(=O)n(C)c(=O)n3C)c1,"15.8 µM [falling, partial curve]"
8,Cc1ccc(CCNC(=O)CCn2nc(-c3ccc(Cl)cc3)ccc2=O)cc1,"0.316 µM [falling, single point]"
9,O=S(=O)(c1ccc(Br)cc1)c1nnn2c1nc(NCCc1ccccc1)c1sccc12,"5.01 µM [falling, full curve]"
10,Cc1nc2ccc(S(=O)(=O)NC(C(=O)N3CCN(c4cccc(Cl)c4)CC3)C(C)C)cc2s1 (stereo unspecified),"12.6 µM [falling, partial curve]"
11,Cc1ccc(-c2onc(C)c2C)cc1S(=O)(=O)Nc1cccc(Cl)c1C,"31.6 µM [falling, single point]"
12,COc1ccc(N2C(=O)CCSC23C(=O)N(Cc2ccc(F)cc2)c2ccccc23)cc1 (stereo unspecified),"39.8 µM [falling, single point]"
13,O=C(/C=C\Nc1ccc2c(c1)OCO2)c1ccccn1,"1.26 µM [falling, full curve]"
14,CC(=O)c1ccc(C(=O)N(Cc2cccnc2)c2nc3c(C)c(C)ccc3s2)cc1,"25.1 µM [falling, partial curve]"
15,CCOC(=O)N1CCN(C(=O)c2ccc3c(c2)N(Cc2cccc(Cl)c2)C(=O)c2ccccc2S3=O)CC1 (stereo unspecified),"0.398 µM [falling, partial curve]"
16,CN(C)S(=O)(=O)N1CCN(CC(O)COc2ccc3cc(Br)ccc3c2)CC1 (stereo unspecified),"5.01 µM [falling, partial curve]"
17,Cc1ccc(-c2nc3ccccn3c2Nc2ccc3c(c2)OCCO3)o1,"12.6 µM [falling, partial curve]"
18,O=C1CN(C(=O)COc2ccc(Cl)cc2)C(c2ccc(F)cc2)c2cc(Cl)ccc2N1 (stereo unspecified),"20 µM [falling, partial curve]"
19,CCc1ccc(CN(C(=O)Nc2cccc(Cl)c2)c2ccccn2)cc1,"0.501 µM [rising, full curve]"
20,COC(=O)c1nc2n(n1)C(c1cc(OC)ccc1OC)C=C(c1ccc(Br)cc1)N2 (stereo unspecified),"25.1 µM [falling, single point]"
21,O=C(c1ccccc1F)N1c2nc(-c3ccco3)nn2C2(CCCCC2)[C@@H]2CCCC[C@@H]21,"15.8 µM [falling, single point]"

# Four consecutive records already listed:
row,SMILES,AC50
6,O=C(c1ccc2c(c1)N(Cc1ccc(Cl)cc1)C(=O)c1ccccc1S2(=O)=O)N1CCN(Cc2ccccc2)CC1,"12.6 µM [falling, partial curve]"
7,Cc1cc(C)cc(NC(=O)CCc2c(C)nc3c(c2C)c(=O)n(C)c(=O)n3C)c1,"15.8 µM [falling, partial curve]"
8,Cc1ccc(CCNC(=O)CCn2nc(-c3ccc(Cl)cc3)ccc2=O)cc1,"0.316 µM [falling, single point]"
9,O=S(=O)(c1ccc(Br)cc1)c1nnn2c1nc(NCCc1ccccc1)c1sccc12,"5.01 µM [falling, full curve]"

# Carrying on.

row,SMILES,AC50
1,Cc1c(Cl)cccc1NS(=O)(=O)c1ccc(NS(=O)(=O)c2ccc3c(c2)OCCO3)cc1,"25.1 µM [falling, partial curve]"
2,CC(C)Oc1ccccc1C1CC(=O)Nc2cc3c(cc21)OCCO3 (stereo unspecified),"5.01 µM [falling, partial curve]"
3,Cc1cccc(N2CCN(C(=O)c3cccn3-c3nnc(N4CCCCC4)s3)CC2)c1C,"39.8 µM [falling, single point]"
4,CCc1cccc(C)c1NC(=O)c1cc(S(=O)(=O)N2CCCCCC2)cn1C,"2.51 µM [falling, full curve, poor fit]"
5,COc1ccc(-c2cc(C(F)(F)F)nc(SCCC(=O)Nc3cccc(OC)c3)n2)cc1,"20 µM [falling, partial curve, poor fit]"
6,COc1ccccc1N1CCN(S(=O)(=O)CCNC(=O)COc2ccccc2F)CC1,"5.01 µM [falling, partial curve]"
7,O=C(CCCn1c(=O)c2sccc2n(Cc2ccc(Cl)cc2)c1=O)NCc1ccc2c(c1)OCO2,"10 µM [falling, partial curve]"
8,CCOC(=O)c1ccccc1NC(=O)c1cc2c(s1)-c1ccccc1SC2,"1 µM [falling, full curve]"
9,COc1ccc(Br)cc1CNC(=O)CCc1cn(Cc2ccc(C)cc2)c2ccccc12,"10 µM [falling, partial curve]"
10,Cc1scc(CN2CCN(c3ccc(F)cc3)CC2)c1C,"15.8 µM [falling, single point]"
11,Cc1nc(SCc2nc3ccccc3[nH]2)c2oc3ccccc3c2n1,"15.8 µM [falling, partial curve]"
12,CC(C)c1ccc(NC(=O)CN2C(=O)CSc3ccc(S(=O)(=O)N4CCCC4)cc32)cc1,"39.8 µM [falling, single point]"
13,N#Cc1ccc(NC(=O)Nc2ccc(Cl)cc2)cc1,"7.94 µM [falling, full curve, poor fit]"
14,CC(C)CC(NC(=O)C1CCCCC1)C(=O)Nc1cccc(C(F)(F)F)c1 (stereo unspecified),"20 µM [falling, partial curve, poor fit]"
15,COc1ccc(N=c2oc3cc(O)ccc3cc2C(=O)NCC2CCCO2)cc1 (stereo unspecified),"0.2 µM [falling, full curve]"
16,Cc1ccc(NC(=O)c2sc3nc(-c4ccncc4)ccc3c2N)cc1,"0.0398 µM [falling, full curve]"
17,CCOc1ccc(S(=O)(=O)c2c(C(=O)c3ccc(C)c(C)c3)cnc3ccccc23)cc1,"20 µM [falling, partial curve, poor fit]"
18,Cc1ccc(CNC(=O)CCc2nnc3n(C)c(=O)c4sccc4n23)cc1,"31.6 µM [falling, single point]"
19,CCOC(=O)c1ccc(Nc2nnc(C(C)(C)C)c(=O)[nH]2)cc1,"2 µM [falling, full curve]"
